These are yes or no findings as the source states them, for the method shown. Binding seen in cells or lysates may run through a third protein. Some results given as binding are weak or reduced against the parent protein; the word gives no strength.
Assays:
HA-IFI16 (wild type) = HA-IFI16 (wild type) (UniProt Q16666); assay: co-IP; lysates of HEK293 cells transfected with Flag-ARPC1B constructs and HA-IFI16 or HA-HuR constructs; anti-HA antibody (Fig. 5A, B); western blotting
HA-HuR (wild type) = HA-HuR (wild type) (UniProt Q15717); assay: as above
[1] = target: γ-interferon inducible protein 16 (human (endogenous in GSC 267 and GSC 20)) (UniProt Q16666); assay: co-IP; co-IP of TRIM21 with IFI16 or HuR in GSC lysates, with ARPC1B knock-down (Fig. 5D) or ARPC1B overexpression in GSC 8-11 (Fig. 5E)
[2] = target: Human antigen R (human (endogenous in GSC 267 and GSC 20)) (UniProt Q15717); assay: as above
[3] = target: Actin related protein 2/3 complex, subunit 1B (human (endogenous in GSC 267 and GSC 20)) (UniProt O15143); assay: co-IP; endogenous reciprocal co-IP in GSC 267 and GSC 20 lysates; antibody on protein A/G magnetic beads, overnight at 4 °C, western blotting

Chains of the proteins cited; added tags and fusions are not shown.
UniProt Q16666: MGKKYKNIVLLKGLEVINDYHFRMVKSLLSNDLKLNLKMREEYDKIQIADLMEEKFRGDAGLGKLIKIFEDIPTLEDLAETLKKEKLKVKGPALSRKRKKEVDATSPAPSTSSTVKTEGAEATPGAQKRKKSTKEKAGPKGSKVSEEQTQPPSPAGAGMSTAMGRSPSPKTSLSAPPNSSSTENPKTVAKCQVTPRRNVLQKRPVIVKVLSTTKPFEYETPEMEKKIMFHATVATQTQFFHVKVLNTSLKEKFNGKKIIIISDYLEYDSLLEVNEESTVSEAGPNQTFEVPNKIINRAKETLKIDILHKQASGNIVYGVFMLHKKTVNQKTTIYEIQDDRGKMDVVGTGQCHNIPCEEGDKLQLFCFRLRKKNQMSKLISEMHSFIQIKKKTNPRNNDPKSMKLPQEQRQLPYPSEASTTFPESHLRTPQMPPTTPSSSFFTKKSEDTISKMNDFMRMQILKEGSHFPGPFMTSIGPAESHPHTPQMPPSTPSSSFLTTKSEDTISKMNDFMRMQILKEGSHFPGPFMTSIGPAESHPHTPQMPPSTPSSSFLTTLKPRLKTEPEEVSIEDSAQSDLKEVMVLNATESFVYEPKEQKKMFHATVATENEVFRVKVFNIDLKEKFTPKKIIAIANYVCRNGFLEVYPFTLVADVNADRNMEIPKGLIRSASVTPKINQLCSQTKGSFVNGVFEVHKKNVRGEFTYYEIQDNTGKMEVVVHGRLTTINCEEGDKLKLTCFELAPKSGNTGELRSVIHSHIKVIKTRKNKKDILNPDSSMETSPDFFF
UniProt P19474: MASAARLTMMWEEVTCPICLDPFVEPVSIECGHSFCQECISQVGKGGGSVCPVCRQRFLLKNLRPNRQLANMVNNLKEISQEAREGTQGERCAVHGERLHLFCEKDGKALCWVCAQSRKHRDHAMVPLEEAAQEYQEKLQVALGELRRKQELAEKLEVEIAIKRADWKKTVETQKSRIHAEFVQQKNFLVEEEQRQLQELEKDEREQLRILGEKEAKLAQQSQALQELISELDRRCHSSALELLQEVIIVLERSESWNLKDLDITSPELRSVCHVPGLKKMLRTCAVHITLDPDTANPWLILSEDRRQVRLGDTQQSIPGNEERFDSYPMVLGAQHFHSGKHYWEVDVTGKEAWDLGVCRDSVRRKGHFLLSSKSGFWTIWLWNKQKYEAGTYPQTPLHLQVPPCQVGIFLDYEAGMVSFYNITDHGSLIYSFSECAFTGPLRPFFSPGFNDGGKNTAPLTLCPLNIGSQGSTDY

binding (HA-IFI16 (wild type)) | binding (HA-HuR (wild type)) | binding [3] | Substance | further results
binds | binds | – | Flag-ARPC1B amino acid regions 1–242 (from UniProt O15143 1-242) (domain or fragment) | –
– | – | – | tripartite motif containing 21 (from UniProt P19474 1-475) | binding [1]: binds; binding [2]: binds
– | – | binds | Human antigen R (from UniProt Q15717 1-326) | –
– | – | binds | γ-interferon inducible protein 16 (from UniProt Q16666 1-785) | –
binds | binds | – | Flag-ARPC1B (wild type) (from UniProt O15143 1-372) | –

Source: article PMC9667586
